Experimental findings from PubChem BioAssay AID2685 (National Center for Advancing Translational Sciences (NCATS), 2010) are described below.

The term AC50 denotes the concentration at which the activity in the assay is half-maximal. A higher AC50 goes with activity only at high concentration.

The nature of this assay: qHTS Assay for Lipid Storage Modulators in Drosophila S3 Cells.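 As to cell number change: cells counted by Cell Tracker Red CMTPX staining in the red channel.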 Conditions: BODIPY lipid droplet fluorescence, 18-24 h; for cell number change: measured here: cell count max response, cells fed with added oleic acid. The gist of the method:
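Drosophila S3 cells got compounds at several concentrations plus oleic acid (400 uM solution). Laser-scanning cytometry with 488 nm excitation read lipid droplets at 500-530 nm and cells at 575-640 nm. Percent activity was relative to 20 uM Triacsin C.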
(qHTS replaces the single test concentration by a dilution series.)

Setting [1] is: measured here: cell number channel AC50, cells fed with added oleic acid.
Where [2] appears, read: measured here: lipid fluorescence (Fed channel) AC50, cells fed with added oleic acid.

This is one part of the list. Further columns of the screen follow, without active or inactive calls. Compounds called inactive in the main read-out are mostly missing here. Potencies come from curve fits of mixed quality, noted in brackets.

For the compound `CCOc1ccccc1NC(=O)CCSc1nc2n[nH]c(C)c2c(=N)n1-c1ccccc1Cl`, under setting [1], the AC50 was 3.66 µM [rising, single point].

For the compound `CCOC(=O)C1(Cc2ccc(OC)cc2)CCN(C(=O)C2=CCCC2)CC1`, the cell number change was -26.7%. Further, the AC50 under setting [2] is 0.0231 µM [falling, full curve, poor fit].

On to `NC(=O)c1c(NC(=O)C2CCCO2)sc2c1CCC2` (configuration not stated), for which the cell number change was -9.03%. Also, the AC50 under setting [1] is 0.00461 µM [falling, full curve, poor fit]. The AC50 under setting [2] is 29.1 µM [falling, single point].

As to `Cc1ccnc2nc(C(=O)Nc3ccc4c(c3)OCO4)nn12`, the cell number change is -5.8%. For the same compound, the AC50 under setting [1] is 0.291 µM [rising, full curve]. For the same compound, the AC50 under setting [2] is 6.51 µM [rising, partial curve, poor fit].

Turning to `Cc1c(C)n(Cc2ccccc2)c2ccc(C(=O)NCCCN3CCOCC3)cc12`, the cell number change came out at 23.9%. Also, under setting [2], the AC50 is 29.1 µM [rising, single point].

Turning to `CCCCOc1ccc(C(=O)Oc2ccc(C)nc2)cc1`, the cell number change came out at 4.46%. For the same compound, under setting [2], the AC50 was 9.2 µM [falling, single point].

On to `CCCCCCCOC(=O)c1ccc(OC(=O)c2cccnc2)cc1`, for which the cell number change was 12.1%.

For the compound `O=C(CSc1cccc(C(F)(F)F)c1)NCc1ccccc1`, the cell number change is -23.7%. Moreover, the AC50 under setting [2] is 0.326 µM [falling, full curve].

In the case of `COc1ccc(O)c(/C=N/NC(=O)CCC(=O)Nc2ccc(F)cc2)c1`, the cell number change was -35.7%. The AC50 under setting [1] was 7.31 µM [falling, partial curve]. Further, the AC50 under setting [2] was 29.1 µM [falling, single point].

For `O=C(CNC(=S)N(CCCN1CCOCC1)Cc1cccs1)NC1CCCCC1`, the cell number change came to 19%. In addition, the AC50 under setting [2] was 20.6 µM [rising, single point].

In the case of `COc1ccc(-c2cc(-c3ccccc3)c(C#N)c(=S)[nH]2)cc1`, the cell number change was -32%. For the same compound, the AC50 under setting [1] was 0.82 µM [falling, full curve, poor fit]. The AC50 under setting [2] was 0.517 µM [falling, full curve].

`Cc1cccnc1NC(=O)CCc1nnc2ccc(N3CCC4(CC3)OCCO4)nn12`: the cell number change stood at 6.49%. Also, the AC50 under setting [2] is 29.1 µM [rising, single point].

Regarding `O=C(NC1CCCCC1)C(c1cccnc1)N(C(=O)c1csnn1)c1ccccc1F` (configuration not stated), the cell number change was 13%. Further, the AC50 under setting [2] is 0.206 µM [rising, single point].

As for `COc1ccccc1NC(=S)N(Cc1cccnc1)Cc1ccco1`, the cell number change came to 41.3%. The AC50 under setting [1] is 18.4 µM [rising, single point]. Moreover, under setting [2], the AC50 was 18.4 µM [rising, single point].

Consider `N#Cc1nc(Cc2ccccc2)oc1N1CCC(C(N)=O)CC1`, for which the cell number change amounted to 17.2%. Further, the AC50 under setting [2] was 0.326 µM [falling, full curve, poor fit].

On to `Nc1nnc(SCC(=O)OCC(=O)c2ccccc2)s1`, for which the cell number change was -42.2%. Moreover, under setting [1], the AC50 is 0.164 µM [falling, full curve, poor fit]. For the same compound, under setting [2], the AC50 was 0.164 µM [falling, full curve, poor fit].

As to `CCOC(=O)N1CCC(Nc2c(NCCCN(CC)c3cccc(C)c3)c(=O)c2=O)CC1`, the cell number change turned out to be 14.7%. Besides, the AC50 under setting [2] is 1.64 µM [falling, partial curve].

In the case of `NC(=O)c1nsc(C(=O)N(Cc2ccco2)C(C(=O)NCC2CCCO2)c2ccc(O)cc2)c1N` (configuration not stated), the cell number change is -13.9%. For the same compound, the AC50 under setting [2] was 29.1 µM [falling, single point].

On to `COc1ccccc1NC(=O)Cn1cnc2c(nc3n2CCCCC3)c1=O`, for which the cell number change came to 29%. For the same compound, the AC50 under setting [2] is 16.4 µM [rising, partial curve].

On to `Cn1c(=O)c2c(nc(OCc3cccnc3)n2Cc2c(F)cccc2Cl)n(C)c1=O`, for which the AC50 under setting [2] was 3.66 µM [rising, partial curve].

As to `O=C(CSc1ncnc2c1oc1ccccc12)NCc1ccc(F)cc1`, the cell number change turned out to be 12.8%. Besides, the AC50 under setting [2] was 1.16 µM [rising, full curve, poor fit].

In the case of `Cc1cc(Br)ccc1NC(=O)CNC(=O)Cc1ccc(S(=O)(=O)N2CCOCC2)s1`, the cell number change came to 3.06%. Under setting [2], the AC50 is 0.82 µM [falling, single point].

Take `O=C1c2ccccc2C(=O)N1Cc1nc(-c2ccccn2)no1`: the cell number change is -18.4%. The AC50 under setting [2] was 6.51 µM [rising, single point].

Regarding `CC1(C)CN(c2ccc(C(=O)c3ccccc3)cc2)C1=O`, the cell number change was determined as 24%. Further, the AC50 under setting [2] was 2.91 µM [falling, single point].

In the case of `Oc1oc(-c2ccco2)nc1C=Nc1cccc(Cl)c1`, the cell number change is -12.5%.

For the compound `CCOC(=O)c1cnn(CC2CCCCC2)c1N`, the cell number change is -10.2%. In addition, under setting [2], the AC50 was 0.231 µM [falling, full curve].

With `COc1cc2c(cc1NC(=O)Nc1ccc(C)cc1)oc1ccccc12`, the cell number change is -15.6%.

Take `COCC(C)n1c(SCC(=O)c2cc(C)n(C)c2C)nc2ccccc2c1=O` (configuration not stated): the cell number change amounted to 37.7%. Besides, the AC50 under setting [1] was 0.0231 µM [rising, full curve, poor fit]. In addition, under setting [2], the AC50 is 29.1 µM [rising, single point].

Turning to `Cc1cccc(NC(=O)NNC(=O)CCc2ccccc2)c1`, the cell number change is 19.8%. Besides, under setting [2], the AC50 was 0.13 µM [rising, full curve, poor fit].

Regarding `Cc1ccc2[nH]c3c(=O)n(CCC4=CCCCC4)cnc3c2c1`, the cell number change was determined as 94.9%.

As to `O=C(CN(C1CCCCC1)S(=O)(=O)c1ccc(Cl)cc1)N1CCOCC1`, the cell number change is -7.99%. The AC50 under setting [2] is 29.1 µM [rising, single point].

For the compound `CC1CC(C)CN(S(=O)(=O)N2CCCC(C(=O)NCCCN3CCCCC3C)C2)C1` (configuration not stated), the cell number change worked out at 9.48%.

Consider `COc1cc(OC)cc(-c2nnc(N(C)C(=O)c3ccncc3)s2)c1`, for which the cell number change stood at 18.1%. Also, the AC50 under setting [1] was 3.66 µM [rising, single point].

Turning to `COCCn1c(-c2ccc(Cl)cc2Cl)nc2c(c(=O)c3ccccc3n2C)c1=O`, the cell number change worked out at 21.9%. In addition, the AC50 under setting [2] is 0.184 µM [rising, full curve, poor fit].

For `CCc1ccc(CN(C)C(=O)c2cc(COc3cc(C)c(Cl)c(C)c3)on2)nc1`, the cell number change came out at 0.295%.

For `COc1ccc(OC)c(NC(=O)Nc2ccc3c(c2)CCC3)c1`, the cell number change was -46.5%. Further, the AC50 under setting [1] was 11.2 µM [falling, partial curve]. Further, under setting [2], the AC50 is 22.4 µM [falling, single point].

`CCN(C(=O)c1cnc(N2CCN(c3ncccn3)CC2)c2ccccc12)c1cccc(Cl)c1`: the cell number change is -8%. In addition, the AC50 under setting [2] is 29.1 µM [falling, single point].

Turning to `CCOC(=O)C1CCN(C2=C(NS(=O)(=O)c3ccc(Br)cc3)C(=O)c3ccccc3C2=O)CC1`, the cell number change is -79.1%. Also, the AC50 under setting [1] was 13 µM [falling, partial curve, poor fit]. For the same compound, under setting [2], the AC50 was 10.3 µM [falling, single point].
